Experimental findings from PubChem BioAssay AID296 (DTP/NCI, 2004) are described below.

The list shows only some results of the screen, not a fair sample: it gathers tests that were run many times, whatever their T/C, doses with no T/C, and many T/C values between a quarter and a half above the control. Further doses and runs are listed elsewhere. T/C is the treated group as % of the vehicle group. Schedules are NCI's codes, taken here to give the interval after Q, in days (D) or hours (H), and the number of doses after X. Some T/C values carry the count of animals alive at the toxicity check (mostly the fifth day); where none is given, no animal had died by that day. Some doses have a count of surviving animals in place of a T/C: the source holds a T/C of zero for them, seemingly a mark for toxic or unscored doses. Survivors were counted at the toxicity check, usually on the fifth day, unless a day is given; later deaths do not show.

For the experiment, the system named is MX-1 breast xenograft, nude mice, tumor weight T/C. The experiment is described as follows: NCI In Vivo Anticancer Drug Screen. Data for tumor model Human Mammary Carcinoma MX-1 Xenograft (intrarenal inoculation) in NU/NU Swiss (nude) mice. The conditions noted are these: T/C endpoint: mean tumor weight change, higher T/C = larger tumour; for T/C: evaluated on day 11. A digest of the protocol:
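Tumor-bearing mice were treated with test compound alongside a vehicle-treated control group. Survival or tumor size was measured, and activity is expressed as the treated-group value divided by the control-group value.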

Where [1] appears, read: dose: 100.0 mg/kg/injection, schedule: Q01DX010 (sc), vehicle: saline.
Setting [2] is: dose: 2400.0 mg/kg/injection, schedule: Q04DX003 (sc), vehicle: saline with Tween-80.
[3] abbreviates: dose: 2400.0 mg/kg/injection, schedule: Q04DX003 (sc), vehicle: Klucel (hydroxypropylcellulose) (HPC).
Setting [4] is: dose: 1200.0 mg/kg/injection, schedule: Q04DX003 (sc), vehicle: Klucel (hydroxypropylcellulose) (HPC).

`N=C(N)SCc1cccc2c(=O)cc(-c3ccccc3)oc12`: the T/C is 144 % of control [4 of 5 alive on day 11] (dose: 600.0 mg/kg/injection, schedule: Q04DX003 (sc), vehicle: suspension in saline); 140 % of control (dose: 1200.0 mg/kg/injection, schedule: Q04DX003 (sc), vehicle: suspension in saline); 143 % of control (dose: 2400.0 mg/kg/injection, schedule: Q04DX003 (sc), vehicle: suspension in saline). Take `Cc1c(CNc2ccc(C(=O)NC(CC(=O)O)C(=O)O)cc2)ccc2nc(N)nc(N)c12` (stereo not drawn): the survivor count (dose: 48.0 mg/kg/injection, schedule: Q04DX003 (sc), vehicle: saline with Tween-80) is recorded as 3 of 6 on day 11 and the survivor count (dose: 96.0 mg/kg/injection, schedule: Q04DX003 (sc), vehicle: saline with Tween-80) is reported as 0 of 6 on day 11.

With `Cn1c(=O)[nH]c2nncnc2c1=O`, the T/C (dose: 62.5 mg/kg/injection, schedule: Q04DX003 (sc), vehicle: water) was 145 % of control [5 of 6 alive on day 11]. Further, the survivor count is recorded as 1 of 6 on day 11 (dose: 250.0 mg/kg/injection, schedule: Q04DX003 (sc), vehicle: water) and 0 of 6 on day 11 (dose: 500.0 mg/kg/injection, schedule: Q04DX003 (sc), vehicle: water). For `O=S(=O)(O)c1cc(N=C=S)ccc1/C=C/c1ccc(N=C=S)cc1S(=O)(=O)O`, the survivor count reads like this: (dose: 300.0 mg/kg/injection, schedule: Q04DX003 (ip), vehicle: saline) 2 of 6 on day 11; (dose: 600.0 mg/kg/injection, schedule: Q04DX003 (ip), vehicle: saline) 0 of 6 on day 11; (dose: 1200.0 mg/kg/injection, schedule: Q04DX003 (ip), vehicle: saline) 0 of 6 on day 11.

Take `CN(C)N=Nc1ccc(S(N)(=O)=O)cc1`: the survivor count (dose: 800.0 mg/kg/injection, schedule: Q01DX010 (sc), vehicle: Klucel (hydroxypropylcellulose) (HPC)) is on record as 1 of 3 on day 11. Turning to `CCOC(=O)/N=[N+](\[O-])c1ccccc1`, the survivor count (dose: 75.0 mg/kg/injection, schedule: Q04DX003 (ip), vehicle: saline with Tween-80) is 1 of 6 on day 11; the survivor count (dose: 150.0 mg/kg/injection, schedule: Q04DX003 (ip), vehicle: saline with Tween-80) is 0 of 6 on day 11; the survivor count (dose: 300.0 mg/kg/injection, schedule: Q04DX003 (ip), vehicle: saline with Tween-80) is on record as 0 of 6 on day 11.

For `COc1ccc(C(=O)/C(Br)=C/C(=O)O)cc1`, the survivor count under setting [1] was 1 of 3 on day 11. As to `COC1CC(C)C(OC)C2=CC(=O)C=C(NC(=O)/C(C)=C/C=C\C(C)C(OC(N)=O)/C(C)=C\C(C)C1OC)C2=O` (stereo not drawn), the survivor count (dose: 50.0 mg/kg/injection, schedule: Q04DX003 (sc), vehicle: saline + alcohol) is recorded as 1 of 6 on day 11 and the survivor count (dose: 100.0 mg/kg/injection, schedule: Q04DX003 (sc), vehicle: saline + alcohol) is on record as 1 of 6 on day 11.

`OCC1(CO)COC2(CCCCC2)N1`: under setting [1], the T/C was 128 % of control. In addition, the survivor count (dose: 400.0 mg/kg/injection, schedule: Q01DX010 (sc), vehicle: saline) is given as 0 of 2 on day 11. On to `COc1cc(Cc2nccc3cc(OC)c(OC)cc23)c(C(C)=O)c(OC)c1`, for which the survivor count (dose: 320.0 mg/kg/injection, schedule: Q01DX010 (sc), vehicle: saline) was 0 of 3 on day 11. As to `CCCN1COC(OCC)C(C)(C)C1` (stereo not drawn), the survivor count under setting [2] was 0 of 6 on day 11. In the case of `Cc1c2cc[n+](CCN3CCCCC3)cc2c(C)c2c1[nH]c1ccc(O)cc12`, under “dose: 200.0 mg/kg/injection, schedule: Q04DX003 (sc), vehicle: suspension in saline”, the survivor count is on record as 2 of 6 on day 11. `Clc1ccc(C2SC=Cc3ccccc32)cc1` (stereo not drawn): the T/C (dose: 300.0 mg/kg/injection, schedule: Q04DX003 (sc), vehicle: Klucel (hydroxypropylcellulose) (HPC)) was 128 % of control [4 of 6 alive on day 11] and the T/C under setting [3] was 136 % of control [5 of 6 alive on day 11].

Consider `Cc1ccc(S(=O)(=O)N/N=C/C(Br)=C(/Br)C(=O)O)cc1`, for which the survivor count under setting [4] is listed as 0 of 6 on day 11. In the case of `COc1ccc2c(c1)CCC(c1ccccc1)=C2c1ccc(OCCN2CCCC2)cc1`, the survivor count by setting is: (dose: 200.0 mg/kg/injection, schedule: Q04DX003 (sc), vehicle: Klucel (hydroxypropylcellulose) (HPC)) 1 of 6 on day 11; (dose: 400.0 mg/kg/injection, schedule: Q04DX003 (sc), vehicle: Klucel (hydroxypropylcellulose) (HPC)) 0 of 6 on day 11; (dose: 800.0 mg/kg/injection, schedule: Q04DX003 (sc), vehicle: Klucel (hydroxypropylcellulose) (HPC)) 0 of 6 on day 11; (dose: 1600.0 mg/kg/injection, schedule: Q04DX003 (sc), vehicle: Klucel (hydroxypropylcellulose) (HPC)) 1 of 6 on day 11. Regarding `C(C#CCN1CCOCC1)#CCN1CCOCC1`, the survivor count under setting [3] is reported as 1 of 6 on day 11. In the case of `C/C(=N\NC(N)=O)c1cccc(/C(C)=N/NC(N)=O)n1`, for the setting “dose: 300.0 mg/kg/injection, schedule: Q04DX003 (sc), vehicle: saline with Tween-80”, the T/C is 149 % of control. Further, the survivor count under setting [2] is reported as 3 of 6 on day 11. `CCCCCCCCCCCCSC1=C(Cl)C(=O)C(OC)=C(OC)C1=O`: the T/C (dose: 150.0 mg/kg/injection, schedule: Q04DX003 (sc), vehicle: saline with Tween-80) was 131 % of control [4 of 5 alive on day 11]. Moreover, the survivor count (dose: 1200.0 mg/kg/injection, schedule: Q04DX003 (sc), vehicle: saline with Tween-80) is reported as 3 of 6 on day 11.

In the case of `O=[N+]([O-])c1ccc(N(CCO)CCO)c2c1no[n+]2[O-]`, for the setting “dose: 100.0 mg/kg/injection, schedule: Q04DX003 (ip), vehicle: saline with Tween-80”, the survivor count was 3 of 6 on day 11. Regarding `O=C(O)c1cc(C(=O)O)c(C(=O)O)cc1C(=O)O.[NH2-].[NH2-].[NH2-].[NH2-].[Pt+2].[Pt+2]`, the T/C (dose: 2.5 mg/kg/injection, schedule: Q04DX003 (ip), vehicle: water) is 126 % of control. In the case of `C[C@@]12C(=O)OC(=O)[C@]1(C)[C@H]1CC[C@@H]2O1`, the survivor count reads like this: (dose: 5.0 mg/kg/injection, schedule: Q04DX003 (sc), vehicle: Klucel (hydroxypropylcellulose) (HPC)) 1 of 6 on day 11; (dose: 10.0 mg/kg/injection, schedule: Q04DX003 (sc), vehicle: Klucel (hydroxypropylcellulose) (HPC)) 3 of 6 on day 11. Regarding `CCNC(=O)OCc1c(COC(=O)NCC)c(-c2ccc(Cl)c(Cl)c2)n2c1CCC2`, the survivor count was 1 of 3 on day 11 (dose: 100.0 mg/kg/injection, schedule: Q01DX010 (sc), vehicle: saline with Tween-80); 1 of 3 on day 11 (dose: 200.0 mg/kg/injection, schedule: Q01DX010 (sc), vehicle: saline with Tween-80); 0 of 3 on day 11 (dose: 400.0 mg/kg/injection, schedule: Q01DX010 (sc), vehicle: saline with Tween-80).

Regarding `CC(CN1CC(=O)NC(=O)C1)N1CC(=O)NC(=O)C1` (stereo not drawn), the survivor count reads like this: (dose: 600.0 mg/kg/injection, schedule: Q04DX003 (sc), vehicle: Klucel (hydroxypropylcellulose) (HPC)) 3 of 6 on day 11; under setting [4], 0 of 6 on day 11. Turning to `NC(Cn1ccc(=O)c(O)c1)C(=O)O` (stereo not drawn), the T/C (dose: 600.0 mg/kg/injection, schedule: Q04DX003 (sc), vehicle: saline) was 131 % of control.

With `CC(C)(C[NH-])C[NH-].[Cl][Pt+2][Cl]`, for the setting “dose: 6.0 mg/kg/injection, schedule: Q04DX003 (ip), vehicle: other”, the T/C is 126 % of control [5 of 6 alive on day 11]. In addition, the survivor count by setting is: (dose: 12.0 mg/kg/injection, schedule: Q04DX003 (ip), vehicle: other) 2 of 6 on day 11; (dose: 12.0 mg/kg/injection, schedule: Q04DX003 (ip), vehicle: water) 2 of 6 on day 11.
